This is an account of results in article PMC3641059.

The target in experiment [1] is T1, Ste5 (S. cerevisiae) (UniProt P32917).
T1 sequence: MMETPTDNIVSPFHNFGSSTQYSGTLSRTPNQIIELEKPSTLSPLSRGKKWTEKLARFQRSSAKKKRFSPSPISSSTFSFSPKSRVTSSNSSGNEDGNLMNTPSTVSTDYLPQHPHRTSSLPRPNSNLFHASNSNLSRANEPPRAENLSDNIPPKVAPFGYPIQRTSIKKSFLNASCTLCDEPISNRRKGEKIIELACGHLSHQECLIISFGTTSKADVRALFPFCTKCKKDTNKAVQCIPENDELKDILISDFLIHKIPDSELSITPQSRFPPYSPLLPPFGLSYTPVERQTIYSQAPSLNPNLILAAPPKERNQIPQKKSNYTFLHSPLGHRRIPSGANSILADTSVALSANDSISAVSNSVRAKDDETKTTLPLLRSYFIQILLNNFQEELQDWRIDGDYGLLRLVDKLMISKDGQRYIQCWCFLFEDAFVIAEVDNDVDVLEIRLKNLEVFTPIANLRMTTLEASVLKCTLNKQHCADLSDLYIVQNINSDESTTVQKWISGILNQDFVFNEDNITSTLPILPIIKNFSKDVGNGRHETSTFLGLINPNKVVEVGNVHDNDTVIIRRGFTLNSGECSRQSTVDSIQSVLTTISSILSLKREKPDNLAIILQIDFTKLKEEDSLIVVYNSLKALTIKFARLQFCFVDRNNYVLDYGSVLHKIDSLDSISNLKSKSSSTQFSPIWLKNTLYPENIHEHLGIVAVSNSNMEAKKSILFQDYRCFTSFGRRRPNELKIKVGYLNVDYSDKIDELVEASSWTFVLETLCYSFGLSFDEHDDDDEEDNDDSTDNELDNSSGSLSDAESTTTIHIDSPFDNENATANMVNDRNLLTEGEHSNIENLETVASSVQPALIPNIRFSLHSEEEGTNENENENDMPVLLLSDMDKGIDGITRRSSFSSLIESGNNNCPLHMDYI
Nature of the experiment: PICT (co-translocation of GFP-tagged prey with FRB-tagged bait to an FKBP-tagged anchor, live-cell fluorescence imaging); living S. cerevisiae (tor1-1, FPR1 deleted), anchor Pil1-RFP-FKBP, bait-FRB, prey-GFP; cells grown in SD medium at 25°C, vehicle (DMSO) or 10 µM rapamycin, imaged after 15 min; scored positive when >90% of membrane patches in the GFP channel colocalised with the anchor; also done in ste5Δ and ste50Δ cells.

The target of experiment [2] is T2, Ste50 (S. cerevisiae) (UniProt P25344).
T2 sequence: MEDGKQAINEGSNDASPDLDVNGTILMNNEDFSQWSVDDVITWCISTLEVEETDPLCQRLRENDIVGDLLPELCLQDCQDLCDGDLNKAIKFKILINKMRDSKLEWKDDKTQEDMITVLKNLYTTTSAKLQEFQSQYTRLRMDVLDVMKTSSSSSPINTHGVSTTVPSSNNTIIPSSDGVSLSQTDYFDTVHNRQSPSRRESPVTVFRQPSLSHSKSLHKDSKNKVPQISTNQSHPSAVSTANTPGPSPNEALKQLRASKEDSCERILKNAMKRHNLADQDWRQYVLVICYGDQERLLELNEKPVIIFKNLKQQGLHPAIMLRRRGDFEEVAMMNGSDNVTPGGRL
The description is as above.

Experiment [3] concerns the target T3, Ede1-FRB (S. cerevisiae) (UniProt P34216).
T3 sequence: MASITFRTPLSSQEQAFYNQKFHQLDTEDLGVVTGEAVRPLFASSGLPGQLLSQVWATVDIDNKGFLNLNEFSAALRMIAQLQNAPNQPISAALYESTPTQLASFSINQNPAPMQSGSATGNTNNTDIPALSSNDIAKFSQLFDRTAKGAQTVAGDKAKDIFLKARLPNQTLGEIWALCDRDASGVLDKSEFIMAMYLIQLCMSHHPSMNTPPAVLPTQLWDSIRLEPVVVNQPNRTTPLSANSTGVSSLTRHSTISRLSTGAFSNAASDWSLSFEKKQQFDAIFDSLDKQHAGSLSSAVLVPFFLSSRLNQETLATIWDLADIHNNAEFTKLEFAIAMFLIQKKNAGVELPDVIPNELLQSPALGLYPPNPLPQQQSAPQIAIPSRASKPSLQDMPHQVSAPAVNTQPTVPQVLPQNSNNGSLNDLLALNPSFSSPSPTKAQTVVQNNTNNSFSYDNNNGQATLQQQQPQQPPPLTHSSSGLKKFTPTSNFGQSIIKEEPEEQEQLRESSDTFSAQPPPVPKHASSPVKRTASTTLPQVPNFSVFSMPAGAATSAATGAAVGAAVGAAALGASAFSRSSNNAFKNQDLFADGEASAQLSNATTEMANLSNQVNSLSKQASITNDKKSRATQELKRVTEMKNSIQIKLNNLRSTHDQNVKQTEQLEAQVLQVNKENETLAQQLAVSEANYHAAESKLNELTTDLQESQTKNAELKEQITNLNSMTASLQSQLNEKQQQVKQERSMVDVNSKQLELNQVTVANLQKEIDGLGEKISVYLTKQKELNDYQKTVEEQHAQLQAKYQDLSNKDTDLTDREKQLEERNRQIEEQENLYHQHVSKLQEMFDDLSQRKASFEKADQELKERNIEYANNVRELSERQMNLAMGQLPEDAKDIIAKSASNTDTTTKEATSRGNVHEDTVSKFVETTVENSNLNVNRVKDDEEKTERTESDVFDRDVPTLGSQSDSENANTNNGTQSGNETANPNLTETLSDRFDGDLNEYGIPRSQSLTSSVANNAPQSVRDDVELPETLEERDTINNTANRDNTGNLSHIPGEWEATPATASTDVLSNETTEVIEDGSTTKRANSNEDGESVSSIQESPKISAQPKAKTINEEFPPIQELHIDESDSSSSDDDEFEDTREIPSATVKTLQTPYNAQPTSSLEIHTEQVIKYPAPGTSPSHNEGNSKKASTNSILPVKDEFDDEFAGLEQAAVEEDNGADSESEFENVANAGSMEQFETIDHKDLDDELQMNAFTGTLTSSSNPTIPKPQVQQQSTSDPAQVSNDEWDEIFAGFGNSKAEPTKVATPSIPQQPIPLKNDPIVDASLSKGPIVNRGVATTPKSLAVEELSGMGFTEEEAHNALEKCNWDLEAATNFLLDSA
The description is as above.

Experiment [4] concerns the target T3, Ede1-FRB (S. cerevisiae). The experiment is described as follows: PICT-FRAP (fluorescence recovery after photobleaching of GFP-tagged protein recruited to the anchor sites); living S. cerevisiae, anchor Pil1-RFP-FKBP, rapamycin; 488 nm laser bleaching of an anchoring platform; exchange of the GFP-tagged protein followed.

Results are given in words; binding and its absence hold for the method and conditions named. Some results given as binding are weak or reduced against the parent protein; the word gives no strength. For some of these results: Where a sequence is shown, tags or fusion partners need not be part of it.

B1: Ste11 (protein, UniProt P23561 1-717)
chain: MEQTQTAEGTDLLIGDEKTNDLPFVQLFLEEIGCTQYLDSFIQCNLVTEEEIKYLDKDILIALGVNKIGDRLKILRKSKSFQRDKRIEQVNRLKNLMEKVSSLSTATLSMNSELIPEKHCVIFILNDGSAKKVNVNGCFNADSIKKRLIRRLPHELLATNSNGEVTKMVQDYDVFVLDYTKNVLHLLYDVELVTICHANDRVEKNRLIFVSKDQTPSDKAISTSKKLYLRTLSALSQVGPSSSNLLAQNKGISHNNAEGKLRIDNTEKDRIRQIFNQRPPSEFISTNLAGYFPHTDMKRLQKTMRESFRHSARLSIAQRRPLSAESNNIGDILLKHSNAVDMALLQGLDQTRLSSKLDTTKIPKLAHKRPEDNDAISNQLELLSVESGEEEDHDFFGEDSDIVSLPTKIATPKNWLKGACIGSGSFGSVYLGMNAHTGELMAVKQVEIKNNNIGVPTDNNKQANSDENNEQEEQQEKIEDVGAVSHPKTNQNIHRKMVDALQHEMNLLKELHHENIVTYYGASQEGGNLNIFLEYVPGGSVSSMLNNYGPFEESLITNFTRQILIGVAYLHKKNIIHRDIKGANILIDIKGCVKITDFGISKKLSPLNKKQNKRASLQGSVFWMSPEVVKQTATTAKADIWSTGCVVIEMFTGKHPFPDFSQMQAIFKIGTNTTPEIPSWATSEGKNFLRKAFELDYQYRPSALELLQHPWLDAHII
Regarding B1, the binding result in experiment [1] and in experiment [2] was “binds” each time.

B2: Syp1-GFP (protein, UniProt P25623 1-870)
chain: MTEQRTKYADSILTTKSPYEATETIRIRLSQVKLLNKDFYLLFKELANLKRNYAQQLRKIIAENEDITKILNAQMIESNVLTPQEMSAFRFNSLGELRNVWDTVIEELKSDLKSSTEYYNTLDQQVVRELKESVENNTSWRESKDLHSKLSKNAASIEHYSKNNENSSHLEEARRQWDQQSPYLFELFETIDYNRLDTLKNCMLRFQTSFSDYLLNTTKECETVMTKFLAFEPQSEIDRFAKDASQYNFQLSSSSKEVVPNNASPASATGARPVSVSNGAANTEREKKSPQKDKRKSAFGNIGHRLASASSSLTHNDLMNNEFSDSTNNSSLKSKKSSHTLRSKVGSIFGRNKTKNKRQQQSSSNSHIQASITETPNNSSTRVSSTATSSIYQKQRRPTYSSSKSNNWTPGEASDTPPLPPHATPKNVDAPVTADTPPAQTFTPSEVPPSTPQQSSPPTAKEPDSSNLPKTVPISISQPPLQPQSKTKPLPVEPASPSISLPTATVDNQPSGQVDSRPLHIRAPALPPSRKQNFIHNRDSQLYDSLPNHGSGATPTSSSLSSIPQERPVSTLSSQITGELRELNPQATGSSTSLVGQSLFQHSSLDTSQFGLNASIAEVLNASFKDGMLQNSQLIGEIALNYLPNSVMNSPLPIGINLRINNGAKFEKVILNQAFIERVAPEEFKVNPSFIDSRTLGAIKYSIKEPIAPIVIHPVWRFESHQASVVLTVKMSPSLPDEISQIVIEDLVVFVNIDGANATSALSKPQGSFSKEKKRITWRFKEPVVLTRNGEGQRLIARFITDGLAHESAKGVITKFTISETDNVALPHSGAGSGITLTCQELDENNPFGGEWLDVNTKRTLTTGNYHGLA
With B2, the binding entry in experiment [3] and in experiment [4] was “binds” in each case.
